Measurements from patent US20220267258A1, “ROBENIDINE ANALOGS AS POTENT ANTIMALARIALS AGAINST DRUG-RESISTANT PLASMODIUM FALCIPARUM” (OREGON HEALTH & SCIENCE UNIVERSITY, priority 2021, published 2022).

What follows are compounds tested on human hepatoma derived HepG2 cells (assay: HepG2 cytotoxicity assay (resazurin)). Conditions: cytotoxicity/D6 IC50.
Format: cell-based
Method: In this assay, HepG2 cells were incubated with test compounds for 24 hours, followed by a 24-hour recovery period and subsequent staining to evaluate for cytotoxic effects with resazurin. The ratio of the resulting HepG2 IC50 value to the P. falciparum D6 IC50 value can be considered an ‘in vitro therapeutic index,’ or IVTI.
Compounds were prepared as 10 mM stock solutions in DMSO. […] HepG2 cells were added to each well of flat bottom 96-well tissue culture plates at an initial density of 2×10^4 cells per well, and an initial volume of 160 μL complete medium per well. After an overnight incubation at 37° C. to adhere the cells to the culture plates, 40 μL drug solutions in complete medium were applied to each well at a final concentration range of 0 to 200 μM across each plate. Drugs were tested in triplicate or quadruplicate. The cells were incubated for 24 hours at 37° C. and 5% CO2 with the drug solutions, which were then aspirated and replaced with 200 μL per well of complete medium for an additional 24 hour incubation under the same conditions. To each well was added 20 μL of resazurin (Alamar Blue) in PBS buffer to a final concentration of 10 μM, and the plates were incubated for 3 hours. Fluorescence was measured at 560 nm excitation and 590 nm emission bands using a Spectramax iD3 plate reader. Fluorescence readings were normalized with respect to the untreated control wells and plotted against the logarithm of drug concentration.

SMILES	IVTI (In Vitro Therapeutic Index)
N=C(N/N=C/c1ccccc1F)N/N=C/c1ccccc1F [Compound 2]	>100
N=C(N/N=C/c1cccc(F)c1)N/N=C/c1cccc(F)c1 [Compound 3]	64
N=C(N/N=C/c1ccc(F)cc1)N/N=C/c1ccc(F)cc1 [Compound 4]	24
N=C(N/N=C/c1ccccc1Cl)N/N=C/c1ccccc1Cl [Compound 5]	>100
N=C(N/N=C/c1cccc(Cl)c1)N/N=C/c1cccc(Cl)c1 [Compound 6]	>100
N=C(N/N=C/c1ccccc1Br)N/N=C/c1ccccc1Br [Compound 7]	>100
N=C(N/N=C/c1cccc(Br)c1)N/N=C/c1cccc(Br)c1 [Compound 8]	>100
N=C(N/N=C/c1ccc(Br)cc1)N/N=C/c1ccc(Br)cc1 [Compound 9]	>100
Cc1ccc(/C=N/NC(=N)N/N=C/c2ccc(C)cc2)cc1 [Compound 10]	48
COc1ccc(/C=N/NC(=N)N/N=C/c2ccc(OC)cc2)cc1 [Compound 11]	>100
N=C(N/N=C/c1ccc(C(F)(F)F)cc1)N/N=C/c1ccc(C(F)(F)F)cc1 [Compound 12]	65
N=C(N/N=C/c1ccccc1OC(F)(F)F)N/N=C/c1ccccc1OC(F)(F)F [Compound 14]	>100
N=C(N/N=C/c1cccc(OC(F)(F)F)c1)N/N=C/c1cccc(OC(F)(F)F)c1 [Compound 15]	91
N=C(N/N=C/c1ccc(OC(F)(F)F)cc1)N/N=C/c1ccc(OC(F)(F)F)cc1 [Compound 16]	>100
N=C(N/N=C/c1ccc(OC(F)F)cc1)N/N=C/c1ccc(OC(F)F)cc1 [Compound 18]	>100
N#Cc1ccccc1/C=N/NC(=N)N/N=C/c1ccccc1C#N [Compound 20]	30
N#Cc1cccc(/C=N/NC(=N)N/N=C/c2cccc(C#N)c2)c1 [Compound 21]	>100
N=C(N/N=C/c1ccccc1)N/N=C/c1ccccc1 [Compound 24]	>100
N=C(N/N=C/c1ccc(O)cc1)N/N=C/c1ccc(O)cc1 [Compound 25]	>100
N=C(N/N=C/c1ccc(-c2ccccc2)cc1)N/N=C/c1ccc(-c2ccccc2)cc1 [Compound 26]	>100
N=C(NN=Cc1ccc([N+](=O)[O-])cc1)NN=Cc1ccc([N+](=O)[O-])cc1 [Compound 27]	>100
CN(C)c1ccc(/C=N/NC(=N)N/N=C/c2ccc(N(C)C)cc2)cc1 [Compound 28]	>100
CC#COc1ccc(/C=N/NC(=N)N/N=C/c2ccc(OC#CC)cc2)cc1 [Compound 32]	>100
N=C(N/N=C/c1ccc(N2CCOCC2)cc1)N/N=C/c1ccc(N2CCOCC2)cc1 [Compound 33]	>100
N=C(N/N=C/c1cccc(-n2cnnn2)c1)N/N=C/c1cccc(-n2cnnn2)c1 [Compound 34]	65
Cl.N=C(NN=Cc1ccc2c(c1)OC(F)(F)O2)NN=Cc1ccc2c(c1)OC(F)(F)O2 [Compound 36]	>100
N=C(N/N=C/c1ccccc1)N/N=C/c1ccccc1F [Compound 38]	>100
N=C(N/N=C/c1ccc(Cl)cc1)N/N=C/c1ccc(Cl)cc1 [Robenidine]	93

What follows are compounds tested on P. falciparum strains (assay: not given). Conditions: MDR strains Dd2 and C2B relative to drug sensitive D6.
Format: cell-based, Plasmodium falciparum
Method: The in vitro activity of each compound in the aminoguanidine library was assessed against asynchronous cultures of Plasmodium falciparum parasites replicating within human erythrocytes (Tables 1-3). As the chemical development of robenidine was not discussed in its original publication in 1970^4 and limited structural information is available regarding its mechanism of action,^10 profiling was guided primarily by in vitro potency against the P. falciparum D6 strain cultured in human erythrocytes as described above.
All aminoguanidines synthesized were also evaluated against three multi-drug resistant P. falciparum strains (Dd2, Tm90-C2B, and A6) and for mammalian cell cytotoxicity.
In addition to the drug-sensitive P. falciparum D6 strain, the aminoguanidines were assessed against three drug-resistant strains (Tables 1-3).
The aminoguanidine series was assessed for in vitro antiplasmodial activity using the fluorescence-based SYBR Green assay described previously by Smilkstein and co-workers.^38 Compounds were evaluated in quadruplicate in flat-bottomed Costar clear 96-well plates (Model #3585). […] Fluorescence was read at 497 nm excitation and 520 nm emission bands using a Spectramax iD3 plate reader. Fluorescence readings were normalized with respect to the untreated control wells representing normal parasite growth and plotted against the logarithm of drug concentration.

SMILES	degree of cross resistance
N=C(N/N=C/c1cccc(F)c1)N/N=C/c1cccc(F)c1 [Compound 3]	6.5 fold
COc1ccc(/C=N/NC(=N)N/N=C/c2ccc(OC)cc2)cc1 [Compound 11]	~19 fold
